Measured values from PubChem BioAssay AID493014 (National Center for Advancing Translational Sciences (NCATS), 2011).
Some of the results follow. The main result of the screen is listed elsewhere. These columns were measured beside it and carry no call. Most of these compounds were active or inconclusive in the main read-out, so they are no random draw. Potencies come from curve fits of mixed quality, noted in brackets.

Assay: qHTS Assay to Find Inhibitors of Chronic Active B-Cell Receptor Signaling
Settings: ABC-DLBCL IkBa-CBG/CBR reporter, luminescence ratio (green luciferase fused to IkBa over red control in TMD8 lymphoma cells), 4 h
Procedure, shortened: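 Compounds up to 46 uM were incubated four hours with TMD8 cells whose green CBG68 luciferase is fused to IkappaBalpha; red CBR luminescence normalised the signal, and concentration-effect curves were fitted to fusion, red and ratio data.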

[1] = measured here: CBR red luminescence, cell number
[2] = measured here: IkBa-CBG green luminescence

SMILES	AC50 [1]	AC50 [2]
Cc1ccc(NC(=O)C/C(N)=N/OC(=O)Nc2cccc(Cl)c2)cc1	23.1 µM [rising, single point]	–
COc1ccc(NC(=O)CNS(=O)(=O)c2cccs2)cc1	13 µM [rising, partial curve, poor fit]	–
Cn1c(=O)c([N+](=O)[O-])c(-n2ccnc2)c2ccccc21	14.1 µM [falling, partial curve]	–
Cc1noc(C)c1COC(=O)c1ccc2c(c1)S(=O)(=O)c1ccccc1C2=O	17.8 µM [rising, partial curve, poor fit]	–
COc1cc(NC(=S)NC2CC(C)(C)NC(C)(C)C2)c(OC)cc1Cl	11.2 µM [falling, partial curve]	–
Clc1ccc(-c2nnc(CSc3nnc(-c4cccs4)n3Cc3ccccc3)o2)cc1	18.4 µM [falling, partial curve, poor fit]	–
COC(=O)c1ccc(NC(=O)CN(c2ccc3c(c2)OCO3)S(C)(=O)=O)cc1	4.11 µM [rising, partial curve, poor fit]	–
CC1(C)COC(c2cccn2Cc2ccc(F)cc2Cl)=N1	6.31 µM [falling, single point]	–
COc1ccc(/C(O)=C/C(=O)C(=O)NNC(=O)c2ccccc2)cc1	35.5 µM [falling, single point]	–
CC(=O)Nc1ccc(C(=O)OCC(=O)N2CCCC2)cc1	17.8 µM [rising, single point]	–
O=C(N/N=C/c1c[nH]c2ccc(Br)cc12)c1ccncc1	29.1 µM [falling, single point]	–
COc1ccc(CN2C(=O)c3ccccc3C(/C=N\OCc3ccc(C)cc3)C2=O)cc1 (stereo not given)	0.1 µM [falling, full curve, poor fit]	–
COc1ccc(-c2nc(CS(=O)(=O)CC(=O)NCCc3ccccc3)c(C)o2)cc1	35.5 µM [rising, single point]	–
[O-][n+]1c2ccccc2cc2ccccc21	20.6 µM [falling, partial curve]	–
CS(=O)(=O)c1cccc(C(=O)OCC(=O)Nc2ccc3c(c2)OCO3)c1	29.1 µM [rising, single point]	–
Cc1ccc(S(=O)(=O)N2CCCC2CNC(=O)C(=O)Nc2ccc(F)cc2)cc1 (stereo not given)	13 µM [falling, partial curve]	–
CC(C)NC(=NCc1ccc(Cl)cc1Cl)Nc1ccccc1	17.8 µM [falling, partial curve]	–
Cc1ccc(CCCOC(=O)C[N+]2(C)CCCC2)cc1	13 µM [rising, partial curve, poor fit]	–
COCc1ccc(-c2c(-c3ccc(OC)cc3)oc(=O)c3cc(OC)c(OC)cc23)cc1	3.26 µM [rising, full curve]	–
CC(C)C1=CC(=Nc2ccc(S(N)(=O)=O)cc2)C=C(C(C)C)C1=O	–	17.8 µM [falling, single point]
COC(=O)c1sc(-c2cccs2)cc1NC(=O)/C=C/C(=O)O	10 µM [falling, partial curve, poor fit]	–
CC(=O)c1noc(C)c1C(=O)Nc1nccs1	0.58 µM [falling, full curve, poor fit]	–

Structures from the list above with two or more sulfur atoms:
SMILES	AC50 [1]	AC50 [2]
COc1ccc(NC(=O)CNS(=O)(=O)c2cccs2)cc1	13 µM [rising, partial curve, poor fit]	–
Clc1ccc(-c2nnc(CSc3nnc(-c4cccs4)n3Cc3ccccc3)o2)cc1	18.4 µM [falling, partial curve, poor fit]	–
COC(=O)c1sc(-c2cccs2)cc1NC(=O)/C=C/C(=O)O	10 µM [falling, partial curve, poor fit]	–

Next part.

SMILES	AC50 [1]	AC50 [2]
CCOC(=O)C1=C(CNCCc2ccc(Cl)cc2)NC(=O)NC1c1ccc2c(c1)OCO2 (stereo not given)	25.9 µM [falling, single point]	–
O=C1c2ccccc2-c2nnc(-c3ccc(O)cc3)cc21	6.31 µM [falling, partial curve]	–
COc1cc(OC)c2c(-c3cccc(/C=C/c4ccc(F)cc4)c3)cc(=O)oc2c1	5.8 µM [rising, full curve]	–
Cc1cc(O)c(-c2cc(O)c(C)cc2O)cc1O	15.8 µM [falling, single point]	–
C/C(Cn1nnc([N+](=O)[O-])n1)=N\NC(=O)c1ccccc1O	2.51 µM [falling, partial curve]	–
O=C(OCCOc1cccc(Cl)c1)c1ccc2ncsc2c1	12.6 µM [falling, partial curve]	–
CCN(CC)CCn1c2c(c(SCC(=O)Nc3ccc4c(c3)OCCO4)nc1=O)CCCC2	16.4 µM [falling, single point]	–
C/C(=N\NC(=O)c1ccc(CSc2nncn2C)cc1)c1ccc2ccccc2c1	4.11 µM [rising, full curve, poor fit]	–
COc1ccc(N2CCN(C(=O)CCCN3C(=O)c4cccc5cccc(c45)C3=O)CC2)cc1	8.91 µM [rising, partial curve]	–
CC(=O)Nc1cccc(-c2nc3ccccc3c(=O)o2)c1	10.3 µM [falling, partial curve]	–
CCn1nc(C)c(C(=O)Nc2cc(Oc3cc(C)cc(C)c3)cc([N+](=O)[O-])c2)c1C	35.5 µM [falling, single point]	–
Cc1ccc(CSc2ncnc3onc(C)c23)cc1	22.4 µM [rising, single point]	–
Cc1nc(NCCc2ccc(F)cc2)c2nnn(Cc3ccccc3)c2n1	7.08 µM [falling, partial curve, poor fit]	–
O=C1CCCC(O)=C1N=Nc1c(Cl)cc(Cl)cc1Cl	20.6 µM [rising, partial curve, poor fit]	–
O=C(CNC(=O)c1ccco1)OCc1cccc(Cl)c1	14.1 µM [rising, partial curve, poor fit]	–
CCOC(=O)C(=Cc1c[nH]c2ccc(S(=O)(=O)N(C)C)cc12)C(=O)OCC	8.91 µM [falling, partial curve]	–
CCCCCCn1c(=O)[nH]c2nc3cc(N)ccc3nc2c1=O	16.4 µM [falling, single point]	–
CCc1c(C)nc(SCC(=O)NNC(=O)Cc2ccc(OC)cc2)[nH]c1=O	11.2 µM [falling, single point]	–
O=C(NN1C(=O)C2C3C=CC(C4CC34)C2C1=O)c1ccccc1Cl (stereo not given)	18.4 µM [falling, single point]	–
CN(C)N1C(N)=C(C#N)C(c2cccc(Cl)c2)C2=C1CCCC2=O (stereo not given)	12.6 µM [falling, partial curve]	–
CC1(C)C2CC=C(/C=N/NC(=O)c3ccc(O)cc3)C1C2 (stereo not given)	9.2 µM [falling, partial curve]	–
CCOc1ccc(S(=O)(=O)N(CC(=O)NN=C2CCN(C)CC2)c2ccc(C)cc2)cc1	17.8 µM [rising, single point]	35.5 µM [falling, partial curve, poor fit]

3 compounds from above, sorted by number of heavy atoms, ascending.
SMILES	AC50 [1]	AC50 [2]
O=C1CCCC(O)=C1N=Nc1c(Cl)cc(Cl)cc1Cl	20.6 µM [rising, partial curve, poor fit]	–
O=C(CNC(=O)c1ccco1)OCc1cccc(Cl)c1	14.1 µM [rising, partial curve, poor fit]	–
Cc1nc(NCCc2ccc(F)cc2)c2nnn(Cc3ccccc3)c2n1	7.08 µM [falling, partial curve, poor fit]	–

Later entries

SMILES	AC50 [1]	AC50 [2]
Cc1nn(-c2ccccc2)c(Cl)c1/C=N\NC(=O)c1cncc(Br)c1	0.58 µM [falling, full curve, poor fit]	–
CCCc1noc2c1/C(=N\O)CCC2	12.6 µM [rising, partial curve]	–
c1ccc(-c2c3ccccc3nc3[nH]c4ccccc4c23)cc1	–	0.231 µM [rising, full curve, poor fit]
Cc1ccc(C2C3=C(CCCC3=O)N=C3c4ccccc4C(=O)C32)cc1 (stereo not given)	3.66 µM [rising, partial curve, poor fit]	–
CN(c1ccccc1)c1ccc(/C=N/N2CCOCC2)cc1	16.4 µM [rising, partial curve, poor fit]	–
COc1ccc(NC(=O)Cn2nnc(C(N)=O)c2N)c(OC)c1	10 µM [falling, partial curve, poor fit]	–
Cc1ccc(-n2ncc(Cl)c2C(=O)NCc2ccccc2)cc1	0.501 µM [rising, full curve, poor fit]	–
O=C(N/N=C/c1ccc[nH]1)c1cc(-c2cccs2)nc2ccccc12	35.5 µM [rising, single point]	–
COc1ccc(C(=O)C[n+]2cn(C(F)F)c3ccccc32)c(F)c1	25.1 µM [falling, single point]	–
C=CCn1c(NCc2ccc3c(c2)OCO3)nc2ccccc21	0.398 µM [falling, full curve]	–
Cc1nc2ccc(-c3ccccc3)cc2o1	7.94 µM [rising, partial curve, poor fit]	–
CC(C)(C)OC(=O)N1CCC[C@H]1c1nnc(SCc2c(Cl)cccc2Cl)o1	4.47 µM [rising, full curve]	–
CC1=CC(=O)C(C(C)C)=C/C1=N/OC(=O)c1cccc([N+](=O)[O-])c1	9.2 µM [falling, partial curve, poor fit]	–
CCOc1ccc(CCNC(=O)c2ccc3c(c2)N(Cc2cccc(Cl)c2)C(=O)c2ccccc2S3(=O)=O)cc1OCC	17.8 µM [rising, single point]	–
Cn1cc([N+](=O)[O-])c(C(=O)Nc2nccs2)n1	8.91 µM [falling, partial curve, poor fit]	–
CCCNC(=O)OC[C@H]1O[C@H](CCO/N=C(\C)CCN2CCc3nc(-c4ccccc4)c(-c4ccccc4)cc3C2)C=C[C@@H]1Oc1ccc(OC)cc1	0.461 µM [rising, full curve, poor fit]	–
Cc1ccc(C(c2nnnn2C(C)(C)C)N2CCc3ccccc3C2)cc1 (stereo not given)	29.1 µM [falling, partial curve, poor fit]	–
CC(C)(C)c1ccc(C(=O)Nc2ccc([N+](=O)[O-])cn2)cc1	2.31 µM [rising, partial curve, poor fit]	–
CC(C)c1nnc(NC(=O)c2nc(S(=O)(=O)Cc3ccccc3)ncc2Cl)s1	35.5 µM [falling, single point]	–
NS(=O)(=O)c1cccc(NC(=O)COc2ncnc3c2cnn3-c2ccccc2)c1	12.6 µM [falling, single point]	–
